From paper PMC4965873
Results are given in words; binding and its absence hold for the method and conditions named. In cells and extracts the contact can be indirect. These calls come from enrichment with a bait or labelling near it, and not all partners need be listed.

B1: DIAPH2 (protein, UniProt O70566 1-1098)
chain: MEELGAAASGAGGGGGGGEEHGGGRSNKRGAGNRAANEEETRNKPKLRDRITSFRKSATKREKPVIQHSIDYQTAVVEIPPALIVHDDRSLILSEKEVLDLFEKMMEDMNLNEEKKAPLRKKDFSIKREMVVQYISATSKSIVGSKVLGGLKNSKHEFTLSSQEYVHELRSGISDEKLLNCLESLRVSLTSHPVSWVNNFGYEGLGVLLDVLEKLLDKKQQENIDKKNQYKVIQCLKAFMNNKFGLQRILGDERSLLLLARAIDPKQQNMMTEIVKILSAICIVGEENILDKLLGGITAAAELNNRERFSPIVEGLENNEALHLQVACMQFINALVTSPYDLDFRIHLRNEFLRCGLKAMLPTLKEIENEGLDIQLRVFEENKEDDLSELSHRLNDIRAEMDDINEVYHLLYNMLKDTAAEPYLLSILQHFLLIRNDYYIRPQYYKIIEECVSQIVLHCSGMDPDFKYRQRIDFDFTHLLDACVNKAKVEENEQKAMEFSKKFDEEFTARQEAQAELQKRDEKIKELETEIQQLRGQGVPSAIPGPPPPPPLPGAGPCPPPPPPPPPPPPLPGVVPPPPPPLPGMPGIPPPPPPPLSGVPPPPPPPGGVFPLLSGPIELPYGMKQKKLYKPDIPMKRINWSKIEPKELSENCVWLKLKEEKYENADLFAKLALTFPSQMKGQRNTEAAEENRSGPPKKKVKELRILDTKTAQNLSIFLGSYRMPYEEIKNIILEVNEEMLSEALIQNLVKYLPDQNALRELAQLKSEYDDLCEPEQFGVVMSTVKMLRPRLTSILFKLTFEEHVNNIKPSIIAVTLACEELKKSESFKRLLELILLVGNYMNSGSRNAQSLGFKINFLCKIKDTKSADQKSTLLHFLAEICDEKYRDILKFPDELEHVESAGKVSAQILKSNLVAMEQSILHLEKNIKNFPPAESHHDKFVEKMMSFTQNAREQYDKLSTMHSNMLKLYESLGEYFIFDPNTVNMEEFFGDLNTFRTLFLEALKENHKRKEMEEKSRRAKLAKEKAEQEKLERQKKKKQLIDINKEGDETGVMDNLLEALQSGAAFRDRRKRIPRNPDNRRPPLERSRSRHNGAMSSK
B2: annexin A6 (protein, UniProt P14824 1-673)
chain: MAKIAQGAMYRGSVHDFPEFDANQDAEALYTAMKGFGSDKESILELITSRSNKQRQEICQNYKSLYGKDLIEDLKYELTGKFERLIVNLMRPLAYCDAKEIKDAISGVGTDEKCLIEILASRTNEQMHQLVAAYKDAYERDLESDIIGDTSGHFQKMLVVLLQGTRENDDVVSEDLVQQDVQDLYEAGELKWGTDEAQFIYILGNRSKQHLRLVFDEYLKTTGKPIEASIRGELSGDFEKLMLAVVKCIRSTPEYFAERLFKAMKGLGTRDNTLIRIMVSRSELDMLDIREIFRTKYEKSLYSMIKNDTSGEYKKALLKLCGGDDDAAGQFFPEAAQVAYQMWELSAVSRVELKGTVCAANDFNPDADAKALRKAMKGIGTDEATIIDIVTHRSNAQRQQIRQTFKSHFGRDLMADLKSEISGDLARLILGLMMPPAHYDAKQLKKAMEGAGTDEKTLIEILATRTNAEIRAINEAYKEDYHKSLEDALSSDTSGHFRRILISLATGNREEGGENRDQAQEDAQVAAEILEIADTPSGDKTSLETRFMTVLCTRSYPHLRRVFQEFIKKTNYDIEHVIKKEMSGDVKDAFVAIVQSVKNKPLFFADKLYKSMKGAGTDEKTLTRVMVSRSEIDLLNIRREFIEKYDKSLHQAIEGDTSGDFMKALLALCGGED
B3: PTPRC (receptor, UniProt P06800 26-1293)
chain: QTPTPSDELSTTENALLLPQSDPLPARTTESTPPSISERGNGSSETTYHPGVLSTLLPHLSPQPDSQTPSAGGADTQTFSSQADNPTLTPAPGGGTDPPGVPGERTVPGTIPADTAFPVDTPSLARNSSAASPTHTSNVSTTDISSGASLTTLTPSTLGLASTDPPSTTIATTTKQTCAAMFGNITVNYTYESSNQTFKADLKDVQNAKCGNEDCENVLNNLEECSQIKNISVSNDSCAPATTIDLYVPPGTDKFSLHDCTPKEKANTSICLEWKTKNLDFRKCNSDNISYVLHCEPENNTKCIRRNTFIPERCQLDNLRAQTNYTCVAEILYRGVKLVKNVINVQTDLGIPETPKPSCGDPAARKTLVSWPEPVSKPESASKPHGYVLCYKNNSEKCKSLPNNVTSFEVESLKPYKYYEVSLLAYVNGKIQRNGTAEKCNFHTKADRPDKVNGMKTSRPTDNSINVTCGPPYETNGPKTFYILVVRSGGSFVTKYNKTNCQFYVDNLYYSTDYEFLVSFHNGVYEGDSVIRNESTNFNAKALIIFLVFLIIVTSIALLVVLYKIYDLRKKRSSNLDEQQELVERDDEKQLMDVEPIHSDILLETYKRKIADEGRLFLAEFQSIPRVFSKFPIKDARKPHNQNKNRYVDILPYDYNRVELSEINGDAGSTYINASYIDGFKEPRKYIAAQGPRDETVDDFWRMIWEQKATVIVMVTRCEEGNRNKCAEYWPSMEEGTRAFKDIVVTINDHKRCPDYIIQKLNVAHKKEKATGREVTHIQFTSWPDHGVPEDPHLLLKLRRRVNAFSNFFSGPIVVHCSAGVGRTGTYIGIDAMLEGLEAEGKVDVYGYVVKLRRQRCLMVQVEAQYILIHQALVEYNQFGETEVNLSELHSCLHNMKKRDPPSDPSPLEAEYQRLPSYRSWRTQHIGNQEENKKKNRNSNVVPYDFNRVPLKHELEMSKESEPESDESSDDDSDSEETSKYINASFVMSYWKPEMMIAAQGPLKETIGDFWQMIFQRKVKVIVMLTELVNGDQEVCAQYWGEGKQTYGDMEVEMKDTNRASAYTLRTFELRHSKRKEPRTVYQYQCTTWKGEELPAEPKDLVSMIQDLKQKLPKASPEGMKYHKHASILVHCRDGSQQTGLFCALFNLLESAETEDVVDVFQVVKSLRKARPGVVCSYEQYQFLYDIIASIYPAQNGQVKKTNSQDKIEFHNEVDGGKQDANCVRPDGPLNKAQEDSRGVGTPEPTNSAEEPEHAANGSASPAPTQSS
B4: catalytic subunit CD of PI3K (enzyme, UniProt O35904 1-1043)
chain: MPPGVDCPMEFWTKEESQSVVVDFLLPTGVYLNFPVSRNANLSTIKQVLWHRAQYEPLFHMLSDPEAYVFTCVNQTAEQQELEDEQRRLCDIQPFLPVLRLVAREGDRVKKLINSQISLLIGKGLHEFDSLRDPEVNDFRTKMRQFCEEAAAHRQQLGWVEWLQYSFPLQLEPSARGWRAGLLRVSNRALLVNVKFEGSEESFTFQVSTKDMPLALMACALRKKATVFRQPLVEQPEEYALQVNGRHEYLYGNYPLCHFQYICSCLHSGLTPHLTMVHSSSILAMRDEQSNPAPQVQKPRAKPPPIPAKKPSSVSLWSLEQPFSIELIEGRKVNADERMKLVVQAGLFHGNEMLCKTVSSSEVNVCSEPVWKQRLEFDISVCDLPRMARLCFALYAVVEKAKKARSTKKKSKKADCPIAWANLMLFDYKDQLKTGERCLYMWPSVPDEKGELLNPAGTVRGNPNTESAAALVIYLPEVAPHPVYFPALEKILELGRHGERGRITEEELQLREILERRGSGELYEHEKDLVWKMRHEVQEHFPEALARLLLVTKWNKHEDVAQMLYLLCSWPELPVLSALELLDFSFPDCYVGSFAIKSLRKLTDDELFQYLLQLVQVLKYESYLDCELTKFLLGRALANRKIGHFLFWHLRSEMHVPSVALRFGLIMEAYCRGSTHHMKVLMKQGEALSKLKALNDFVKVSSQKTTKPQTKEMMHMCMRQETYMEALSHLQSPLDPSTLLEEVCVEQCTFMDSKMKPLWIMYSSEEAGSAGNVGIIFKNGDDLRQDMLTLQMIQLMDVLWKQEGLDLRMTPYGCLPTGDRTGLIEVVLHSDTIANIQLNKSNMAATAAFNKDALLNWLKSKNPGEALDRAIEEFTLSCAGYCVATYVLGIGDRHSDNIMIRESGQLFHIDFGHFLGNFKTKFGINRERVPFILTYDFVHVIQQGKTNNSEKFERFRGYCERAYTILRRHGLLFLHLFALMRAAGLPELSCSKDIQYLKDSLALGKTEEEALKHFRVKFNEALRESWKTKVNWLAHNVSKDNRQ
B5: INPP5D (enzyme, UniProt Q9ES52 1-1191)
chain: MPAMVPGWNHGNITRSKAEELLSRAGKDGSFLVRASESIPRAYALCVLFRNCVYTYRILPNEDDKFTVQASEGVPMRFFTKLDQLIDFYKKENMGLVTHLQYPVPLEEEDAIDEAEEDTVESVMSPPELPPRNIPMSAGPSEAKDLPLATENPRAPEVTRLSLSETLFQRLQSMDTSGLPEEHLKAIQDYLSTQLLLDSDFLKTGSSNLPHLKKLMSLLCKELHGEVIRTLPSLESLQRLFDQQLSPGLRPRPQVPGEASPITMVAKLSQLTSLLSSIEDKVKSLLHEGSESTNRRSLIPPVTFEVKSESLGIPQKMHLKVDVESGKLIVKKSKDGSEDKFYSHKKILQLIKSQKFLNKLVILVETEKEKILRKEYVFADSKKREGFCQLLQQMKNKHSEQPEPDMITIFIGTWNMGNAPPPKKITSWFLSKGQGKTRDDSADYIPHDIYVIGTQEDPLGEKEWLELLRHSLQEVTSMTFKTVAIHTLWNIRIVVLAKPEHENRISHICTDNVKTGIANTLGNKGAVGVSFMFNGTSLGFVNSHLTSGSEKKLRRNQNYMNILRFLALGDKKLSPFNITHRFTHLFWLGDLNYRVELPTWEAEAIIQKIKQQQYSDLLAHDQLLLERKDQKVFLHFEEEEITFAPTYRFERLTRDKYAYTKQKATGMKYNLPSWCDRVLWKSYPLVHVVCQSYGSTSDIMTSDHSPVFATFEAGVTSQFVSKNGPGTVDSQGQIEFLACYATLKTKSQTKFYLEFHSSCLESFVKSQEGENEEGSEGELVVRFGETLPKLKPIISDPEYLLDQHILISIKSSDSDESYGEGCIALRLETTEAQHPIYTPLTHHGEMTGHFRGEIKLQTSQGKMREKLYDFVKTERDESSGMKCLKNLTSHDPMRQWEPSGRVPACGVSSLNEMINPNYIGMGPFGQPLHGKSTLSPDQQLTAWSYDQLPKDSSLGPGRGEGPPTPPSQPPLSPKKFSSSTANRGPCPRVQEARPGDLGKVEALLQEDLLLTKPEMFENPLYGSVSSFPKLVPRKEQESPKMLRKEPPPCPDPGISSPSIVLPKAQEVESVKGTSKQAPVPVLGPTPRIRSFTCSSSAEGRMTSGDKSQGKPKASASSQAPVPVKRPVKPSRSEMSQQTTPIPAPRPPLPVKSPAVLQLQHSKGRDYRDNTELPHHGKHRQEEGLLGRTAMQ
B6: CCT8 (protein, UniProt P42932 1-548)
chain: MALHVPKAPGFAQMLKDGAKHFSGLEEAVYRNIQACKELAQTTRTAYGPNGMNKMVINRLEKLFVTNDAATILRELEVQHPAAKMIVMASHMQEQEVGDGTNFVLVFAGALLELAEELLRIGLSVSEVISGYEIACKKAHEILPELVCCSAKNLRDVDEVSSLLRTSIMSKQYGSETFLAKLIAQACVSIFPDSGNFNVDNIRVCKILGSGIYSSSVLHGMVFKKETEGDVTSVKDAKIAVYSCPFDGMITETKGTVLIKTAEELMNFSKGEENLMDAQVKAIAGTGANVIVTGGKVADIALHYANKYNIMLVRLNSKWDLRRLCKTVGATALPKLTPPVQEEMGHCDSVYLSEVGDTQVVVFKHEKEDGAISTIVLRGSTDNLMDDIERAVDDGVNTFKVLTRDKRLVPGGGATEIELAKQITSYGETCPGLEQYAIKKFAEAFEAIPRALAENSGVKANEVISKLYSVHQEGNKNVGLDIEAEVPAVKDMLEASILDTYLGKYWAIKLATNAAVTVLRVDQIIMAKPAGGPKPPSGKKDWDDDQND

What follows are binders tested against CBL-OST (mouse) (UniProt P22682) (assay: affinity purification with mass spectrometry; CBL-OST or CBLB-OST captured on Strep-Tactin Sepharose (1.5 h, 4°C) from postnuclear lysates (n-dodecyl-β-maltoside) of short-term expanded mouse CD4+ T cells, unstimulated or 30, 120, 300, 600 s after anti-CD3 + anti-CD4 cross-linking; eluted with 2.5 mM D-biotin; label-free LC-MS/MS against wild-type cells as control).

binding	Binder
binds	B1
binds	B2
binds	B3
binds	B4
binds	B5
binds	B6
